Assay [1] concerns the target hIL-17A (human) (UniProt Q16552). The assay is described as follows: ELISA on captured hIL-17A, variants expressed in mammalian cells. Background: ELISA stands for enzyme-linked immunosorbent assay.
Assay [2] has the same target. The assay is described as follows: ELISA on plate-immobilised hIL-17A of clones expressed in mammalian cells under identical conditions, OD 450 nm; concentration not given.

The chains behind the UniProt entries cited, without tags or fusion partners. Residues count along the entry.
UniProt Q16552, residues 24-155: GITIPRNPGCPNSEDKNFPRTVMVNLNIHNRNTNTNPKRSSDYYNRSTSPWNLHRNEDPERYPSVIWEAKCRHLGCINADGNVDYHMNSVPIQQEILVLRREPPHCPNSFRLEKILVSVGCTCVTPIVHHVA

These are yes or no findings as the source states them, for the method shown. Some results given as binding are weak or reduced against the parent protein; the word gives no strength.

B1: V23 (Fc fusion, not shown: a dimerising Fc or GST)
chain: LRLLDHRALVCSQPGLNCTVKNSTCLDDSWIHPRNLTPSSPKDLQIQLHFAHTQQGDLVPVAHIEWTLQTDASTLYLEGAELSVLQLNTNERLCVRFEFLSKLRHHHKRWRFTFSHFVVDPGQEYEVTVHHLPKPIPDGDPNHQSKNFLVPDCEHPRMKVTTPCMSSGSLWDPNITVETLEAHQLRVSFTLWNESTHYQILLTSFPHTENHSCFEHMHHIPAPRPEEFHQRSNVTLTLRNLKGCCRHQVQIQPFFSSCLNDCLRHSATVSCPEMPDTPEPIPDYMPLW
For the molecule B1, the binding entry in assay [1] and in assay [2] was “binds” each time.

B2: V25 (Fc fusion, not shown: a dimerising Fc or GST)
chain: LRLLDHRALVCSQPGLNCTVKNSTCLDDSWIHPRNLTPSSPKDLQIQLHFAYTQQGDLVPVAHIEWTLQTDASILYLEGAELSVLQLNTNERLCVRFEFLSKLRHHHKRWRFTFSHFVVDPGQEYEVTVHHLPKPIPDGDPNHQSKNFLVPDCEHPRMKVTTPCMSSGSLWDPNITVETLEAHQLRVSFTLWNESTHYQILLTSFPHMENHSCFEHMHHIPAPRPEEFHQRSNVTLTLRNLKRCCRHQVQIQPFFSSCLNDCLRHSATVSCPEMPDTPEPIPDYMPLW
With B2, the binding result in assay [1] and in assay [2] was “binds” throughout.

B3: V34 (Fc fusion, not shown: a dimerising Fc or GST)
chain: LRLLDHRALVCSQPGLNCTVKNSTCLDDSWIYPRNLTPSSPKDLQIQLHFAHTQQGDLVPVAHIEWTLQTDASILYLEGAELSVLQLNTNERLCVRFEFLSKLRHHHKRWRFTFSHFVVDPGQEYEVTVHHLPKPIPDGDPNHQSKNFLVPDCEHPRMKVTTPCMSSGSLWDPNITVETLEAHQLRVSFTLWNESTHYQVLLTSFPHMENHSCFEHMHHIPAPRPEEFHQRSNVTLTLRNLKGCCRHQVQIQPFFSSCLNDCLRHSATVSCPEMPDTPEPIPDYMPLW
B3: the binding entry in assay [1] and in assay [2] was “binds” throughout.

B4: V33 (Fc fusion, not shown: a dimerising Fc or GST)
chain: LRLLDHRALVCSQPGLSCTVKNSTCLDDSWIHPRNLTPSSPKDLQIQLHFAHTQQGDLVPVAHIEWTLQTDASILYLEGAELSVLQLATNERLCVRFEFLSKLRHHHKRWRFTFSHFVVDPGQEYEVTVHHLPKPIPDGDPNHQSKNFLVPDCEHPRMKVTTPCMSSGSLWDPNITVETLEAHQLRVSFTLWNESTHYQILLTSFPHMENHSCFEHMHHIPAPRPEEFHQRSNVTLTLRNLKGCCRHQVQIQPFFSSCLNDCLRHSATVSCPEMPDTPEPIPDYMPLW
Take B4: the binding entry in assay [1] and in assay [2] was “binds” throughout.

B5: V27 (Fc fusion, not shown: a dimerising Fc or GST)
chain: LRLLDHRALVCSQPGLNCTIKNSTCLDDSWIHPRNLTPSSPKDLQIQLHFAHTQQGDLVPVAHIEWTLQTDASILYLEGAELSVLQLNTNERLCVRFEFLSKLRHHHKRWRFTFSHFVVDPGQEYEVTVHHLPKPIPDGDPNHQSKNFLVPDCEHPRMKVTTPCMSSGSLWDPNITVETLEAHQLRVSFTLWNESTHYQILLTSFPHMENHSCFEHMHHIPAPRPEEFHQRSNVTLTLRNLKGCCRHQVQIQPFFSSCLNDCLRHSATVSCPEMPDTPEPIPDYMPLW
Take B5: the binding result in assay [1] and in assay [2] was “binds” throughout.

B6: V31 (Fc fusion, not shown: a dimerising Fc or GST)
chain: LRLLDHRALVCSQPGLNCTVKNSTCLDDSWIHPRNLTPSSPKDLQIQLHFAYTQQGDLVPVAHIEWTLQTDASILYLEGAELSVLQLNTNERLCVRFEFLSKLRHHHKRWRFTFSHFVVDPGQEYEVTVHHLPKPIPDGDPNHQSKNFLVPDCEHPRMKVTTPCMSSGSLWDPNITVETLEAHQLRVSFTLWNESTHYQILLTSFPHMENHSCFEHMHHIPAPRPEEFHQRSNVTLTLRNLKGCCRHQVQIQPFFSSCLNDCLRHSATVSCPEMPDTPEPIPDYMPLW
B6: the binding entry in assay [1] and in assay [2] was “binds” in each case.

B7: V26 (Fc fusion, not shown: a dimerising Fc or GST)
chain: LRLLDHRALVCSQPGLSCTVKNSTCLDDSWIHPRNLTPSSPKDLQIQLHFAHTQQGDLVPVAHIEWTLQTDASIPYLEGAELSVLQLNTNERLCVRFEFLSKLRHHHKRWRFTFSHFVVDPGQEYEVTVHHLPKPIPDGDPNHQSKNFLVPDCEHPRMKVTTPCMSSGSLWDPNITVETLEAHQLRVSFTLWNESTHYQILLTSFPHMENHSCFEHMHHIPAPRPEEFHQRSNVTLTLRNLKGCCRHQVQIQPFFSSCLNDCLRHSATVSCPEMPDTPEPIPDYMPLW
For the molecule B7, the binding entry in assay [1] and in assay [2] was “binds” each time.

B8: V24 (Fc fusion, not shown: a dimerising Fc or GST)
chain: LRLLDHRALVCSQPGLNCTVKNSTCLDDSWIHPRNLTPSSPKDLQIQLHFAHTQQGDLVPVAHIEWTLQTDASILYLKGAELSVLQLNTNERLCVRFEFLSKLRHHHKRWRFTFSHFVVDPGQEYEVTVHHLPKPIPDGDPNHQSKNFLVPDCEHPRMKVTTPCMSSGSLWDPNITVETLEAHQLRVSFTLWNESTHYQVLLTSFPHMENHSCFEHMHHIPAPRPEEFHQRSNVTLTLRNLKGCCRHQVQIQPFFSSCLNDCLRHSATVSCPEMPDTPEPIPDYMPLW
Turning to B8, in assay [1], the binding entry is reported as “binds”.

B9: V32 (Fc fusion, not shown: a dimerising Fc or GST)
chain: LRLLDHRALVCSQPGLNCTVKNSTCLDDSWIHPRNLTPSSPKDLQIQLHFAHTQQGDLVPVAHIEWTLQTDASILYLKGAELSVLQLNTNERLCVRFEFLSKLRHHHKRWRFTFSHFVVDPGQEYEVTVHHLPKPIPDGDPNHQSKNFLVPDCEHPRMKVTTPCMSSGSLWDPNITVETLEAHQLRVSFTLWNESTHYQILLTSFPHMENHSCFEHMHHIPAPRPEEFHQRSNVTLTLRNLKGCCRHQVQIQPFFSSCLNDCLRHSATVSCPEMPDTPEPIPDYMPLW
For the molecule B9, the binding entry in assay [1] and in assay [2] was “binds” throughout.

B10: V30 (Fc fusion, not shown: a dimerising Fc or GST)
chain: LRLLDHRALVCSQPGLNCTVKNSTCLDDSWIHPRNLTPSSPKDLQIQLHFAHTQQGDLVPVAHIEWTLQTDASILYLEGAELSVLQLNTNERLCVRFEFLSKLRHHHKRWRFTFSHFVVDPGQEYEVTVYHLPKPIPDGDPNHQSKNFLVPDCEHPRMKVTTPCMSSGSLWDPNITVETLEAHQLRVSFTLWNESTHYQILLTSFPHRENHSCFEHMHHIPAPRPEEFHQRSNVTLTLRNLKGCCRHQVQIQPFFSSCLNDCLRHSATVSCPEMPDTPEPIPDYMPLW
In the case of B10, the binding result in assay [1] and in assay [2] was “binds” each time.

B11: V35 (Fc fusion, not shown: a dimerising Fc or GST)
chain: LRLLDHRALVCSQPGLNCTVKNSTCLDDSWIHPRNLTPSSPKDLQIQLHFAHTQQGDLVPVAHIEWTLQTDASILYLKGAELSVLQLNTNERLCVRFEFLSKLRHHHKRWRLTFSHFVVDPGQEYEVTVHHLPKPIPDGDPNHQSKNFLVPDCEHPRMKVTTPCMSSGSLWDPNITVETLEAHQLRVSFTLWNESTHYQILLTSFPHMENHSCFEHMHHIPAPRPEEFHQRSNVTLTLRNLKGCCRHQVQIQPFFSSCLNDCLRHSATVSCPEMPDTPEPIPDYMPLW
Take B11: the binding entry in assay [1] and in assay [2] was “binds” in each case.

The values are drawn from patent US20160376343A1.
